Patent US20230125690A1 (KYUNGPOOK NATIONAL UNIVERSITY INDUSTRY ACADEMIC COOPERATION …, published 2023)
No constants are given. Whether binding was seen depends on the method and setting. Some results given as binding are weak or reduced against the parent protein; the word gives no strength. *1 amine or outer side, *2 acyl side, *3 side chain or, on linkers, in order; H or OH if unused. Where no end group is shown, it is not given here. [ ]: non-standard residue; d: D form. Sac = acetylated serine, O-acetyl-L-serine, CC(=O)OC[C@H](N[*:1])C(=O)[*:2]

T1: mouse COX2 protein with acetylated S565 residue (mouse) (UniProt Q05769)
T1 sequence (acetylated serine at S565, looked up): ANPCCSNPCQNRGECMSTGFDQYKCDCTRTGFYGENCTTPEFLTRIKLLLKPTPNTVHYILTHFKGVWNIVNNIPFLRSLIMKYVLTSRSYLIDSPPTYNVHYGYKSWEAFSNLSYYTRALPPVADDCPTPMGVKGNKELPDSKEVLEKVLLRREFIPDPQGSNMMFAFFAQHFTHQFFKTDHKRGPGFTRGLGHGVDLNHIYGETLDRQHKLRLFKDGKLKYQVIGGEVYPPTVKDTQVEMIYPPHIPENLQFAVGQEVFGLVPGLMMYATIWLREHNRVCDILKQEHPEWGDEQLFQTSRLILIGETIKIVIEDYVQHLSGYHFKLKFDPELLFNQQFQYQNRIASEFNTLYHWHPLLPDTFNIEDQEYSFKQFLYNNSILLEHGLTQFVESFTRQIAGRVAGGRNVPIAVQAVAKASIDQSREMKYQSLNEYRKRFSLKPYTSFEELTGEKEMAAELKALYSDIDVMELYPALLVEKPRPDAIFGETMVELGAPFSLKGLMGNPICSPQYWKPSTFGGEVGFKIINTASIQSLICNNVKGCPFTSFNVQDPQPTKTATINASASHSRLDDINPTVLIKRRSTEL

B1: monoclonal antibody 44C7C8 (antibody, V domains shown)
VH: DVQLQESGPGLVKPSQSLSLTCSVTGYSITSGYYWNWIRQFPGNKLEWMGYISYDGSNNYNPSLKNRISITRDTYKKQFFLKLNSVTTEDTATYYCARGADYYGNTYFYFDVWGAGTTVTVSS
VL: DIVMSQSPSSLAVSVEEKVNMSCKSSQSLLYSRNQKNYLAWYQQKPGQSPKLLIYWASTRESGVPDRFTGSGAGTDFTLTISSVKAEDLAVYYCQQYYTYPFTFGSGTKLEIK
notes: the isotype and constant regions are not; The methods call it 44C7F5 or 44C75F and the results call it 44C7C8; also called 44C7F5; 44C75F
B2: monoclonal antibody 9F7-2 (antibody, V domains shown)
VH: QVQLQQSGAELVRPGTSVKISCKASGYTFTDYLLGWVKQRPGHGLEWIGDIYPGGTYIKYNEKFKGKATLTADTSSSTAYMQLSSLTSEDSAVYFCARGRNDEKGDYWGQGTSVTVSS
VL: DVLMTQTPLSLPVSLGDQASISCRSSQSIVHRNGFTYLEWYLQKPGQSPKLLIYQVSNRFSGVPDRFSGSGSGTDFTLKISRVEAEDLGVYYCFQGSHVPPTFGGGTKLEIK
notes: Clones were screened for IgG expression; the isotype and constant regions are not

Columns and labels:
[1] = molecular target: T1, mouse COX2 protein with acetylated S565 residue (mouse); assay: immunofluorescence staining of mouse brain tissue sections
[2] = molecular target: T1, mouse COX2 protein with acetylated S565 residue (mouse); assay: sandwich ELISA on mouse PBMC lysates, plate coated with 44C7C8
[3] = molecular target: T1, mouse COX2 protein with acetylated S565 residue (mouse); assay: sandwich ELISA on mouse PBMC lysates, plate coated with 9F7-2

Binder | binding [1] | binding [2] | binding [3]
B1 | binds | binds | –
B2 | binds | – | binds
